Measured values published in PMC9834407.
These are yes or no findings as the source states them, for the method shown. In cells and extracts the contact can be indirect. Some entries that bind do so weakly or less than the wild type.

The chains behind the UniProt entries cited, without tags or fusion partners. Where a name states a change or a piece, a line headed by the entry shows the natural chain unless it says otherwise.
UniProt P08670: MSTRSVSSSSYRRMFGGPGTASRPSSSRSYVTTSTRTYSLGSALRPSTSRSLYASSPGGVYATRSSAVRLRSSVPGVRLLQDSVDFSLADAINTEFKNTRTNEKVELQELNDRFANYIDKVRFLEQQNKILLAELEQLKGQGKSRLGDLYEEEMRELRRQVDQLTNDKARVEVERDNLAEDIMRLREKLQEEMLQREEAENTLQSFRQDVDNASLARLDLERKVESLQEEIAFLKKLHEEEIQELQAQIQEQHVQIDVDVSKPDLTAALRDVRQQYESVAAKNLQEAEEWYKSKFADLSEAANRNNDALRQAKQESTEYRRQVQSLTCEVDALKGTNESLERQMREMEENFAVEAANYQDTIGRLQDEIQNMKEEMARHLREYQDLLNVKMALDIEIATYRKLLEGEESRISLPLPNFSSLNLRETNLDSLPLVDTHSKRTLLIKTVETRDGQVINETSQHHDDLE
UniProt P05556: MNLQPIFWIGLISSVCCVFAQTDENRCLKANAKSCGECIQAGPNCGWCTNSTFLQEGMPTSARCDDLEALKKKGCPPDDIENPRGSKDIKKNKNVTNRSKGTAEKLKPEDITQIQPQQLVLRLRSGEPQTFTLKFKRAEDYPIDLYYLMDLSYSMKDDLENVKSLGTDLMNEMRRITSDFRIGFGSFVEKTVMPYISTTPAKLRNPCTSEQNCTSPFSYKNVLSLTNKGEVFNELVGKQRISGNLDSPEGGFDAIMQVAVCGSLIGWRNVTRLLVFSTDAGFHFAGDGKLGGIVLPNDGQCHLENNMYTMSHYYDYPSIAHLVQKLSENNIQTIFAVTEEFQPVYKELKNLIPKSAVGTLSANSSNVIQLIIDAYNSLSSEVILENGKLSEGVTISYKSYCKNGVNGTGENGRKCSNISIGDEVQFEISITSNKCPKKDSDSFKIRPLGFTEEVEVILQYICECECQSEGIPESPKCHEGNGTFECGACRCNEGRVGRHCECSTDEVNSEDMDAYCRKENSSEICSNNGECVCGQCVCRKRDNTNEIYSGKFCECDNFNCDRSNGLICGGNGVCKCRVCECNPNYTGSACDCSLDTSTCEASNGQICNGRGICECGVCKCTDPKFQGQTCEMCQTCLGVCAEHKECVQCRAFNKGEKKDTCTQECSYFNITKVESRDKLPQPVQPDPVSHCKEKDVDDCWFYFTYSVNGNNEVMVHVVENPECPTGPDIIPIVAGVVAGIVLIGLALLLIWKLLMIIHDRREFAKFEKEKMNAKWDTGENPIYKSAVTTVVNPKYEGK
UniProt A2A2Y4: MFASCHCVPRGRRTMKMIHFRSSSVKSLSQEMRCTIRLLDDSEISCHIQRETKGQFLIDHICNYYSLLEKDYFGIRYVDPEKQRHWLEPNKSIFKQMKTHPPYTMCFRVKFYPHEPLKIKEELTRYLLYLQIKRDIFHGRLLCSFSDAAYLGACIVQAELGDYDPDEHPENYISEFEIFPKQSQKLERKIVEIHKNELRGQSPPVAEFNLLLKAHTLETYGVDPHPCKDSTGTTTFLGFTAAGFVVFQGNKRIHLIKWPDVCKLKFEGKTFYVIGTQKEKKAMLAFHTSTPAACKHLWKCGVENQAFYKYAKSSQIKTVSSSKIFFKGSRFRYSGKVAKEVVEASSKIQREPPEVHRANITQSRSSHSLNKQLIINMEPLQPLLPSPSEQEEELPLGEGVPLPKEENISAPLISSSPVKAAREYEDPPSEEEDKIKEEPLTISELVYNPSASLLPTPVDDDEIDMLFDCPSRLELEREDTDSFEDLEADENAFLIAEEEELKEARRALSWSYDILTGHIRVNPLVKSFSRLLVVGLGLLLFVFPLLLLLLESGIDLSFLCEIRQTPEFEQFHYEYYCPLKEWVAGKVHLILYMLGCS

Columns and labels:
[1] = target: vimentin, endogenous (human (endogenous in T47D, MDA-MB-231 and MCF10A)) (UniProt P08670); assay: co-IP; lysates of T47D and MDA-MB-231 cells with FRMD3 overexpression; antibody on Protein A/G magnetic beads, 4 °C overnight, Western blot; which partner was precipitated is not told
[2] = target: vimentin, endogenous (human (endogenous in T47D, MDA-MB-231 and MCF10A)) (UniProt P08670); assay: co-IP; endogenous proteins in MCF10A lysate; antibody on Protein A/G magnetic beads, 4 °C overnight, Western blot; isotype-matched IgG as negative control
[3] = target: β1-integrin (UniProt P05556); assay: as above

Row | binding [1] | binding [2] | binding [3] | Substance
1 | binds |  |  | FERM domain-containing protein 3 (FRMD3), Flag-tagged, from pcflag-FRMD3 (from UniProt A2A2Y4 1-597)
2 |  | binds | no binding | FRMD3, endogenous (from UniProt A2A2Y4 1-597)
